The other results are listed elsewhere or left out.
What was measured:
Assay in all cases: log2 fold change, soluble protein after heating vs DMSO (PISA); higher = thermal stabilisation; K562 lysate, 10 uM; active = over 0.2 and 3.5 SD of the protein, either way, in both replicates (recomputed)
[1] = compound: CCCS(=O)(=O)Nc1ccc(F)c(C(=O)c2c[nH]c3ncc(-c4ccc(Cl)cc4)cc23)c1F [vemurafenib]
Outline: (§1)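 Pellets of K562 cells were dounce-homogenised in PBS pH 7.4 with 1 mM MgCl2, and the crude extract was held at 1 mg/mL protein for a 30 min treatment with 10 μM compound. Aliquots were heated for 3 min over 48°C-58°C and pooled before NP-40 was added to 0.5% at 4°C. The supernatant from 21,000xg for 90 min was quantified by TMTpro 16plex LC-MS/MS with channel sums equalised. Values are reported from duplicates as log-two fold change in thermal stability relative to solvent controls.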

The chains behind the UniProt entries cited, without tags or fusion partners. Where a name states a change or a piece, a line headed by the entry shows the natural chain unless it says otherwise.
UniProt O00716: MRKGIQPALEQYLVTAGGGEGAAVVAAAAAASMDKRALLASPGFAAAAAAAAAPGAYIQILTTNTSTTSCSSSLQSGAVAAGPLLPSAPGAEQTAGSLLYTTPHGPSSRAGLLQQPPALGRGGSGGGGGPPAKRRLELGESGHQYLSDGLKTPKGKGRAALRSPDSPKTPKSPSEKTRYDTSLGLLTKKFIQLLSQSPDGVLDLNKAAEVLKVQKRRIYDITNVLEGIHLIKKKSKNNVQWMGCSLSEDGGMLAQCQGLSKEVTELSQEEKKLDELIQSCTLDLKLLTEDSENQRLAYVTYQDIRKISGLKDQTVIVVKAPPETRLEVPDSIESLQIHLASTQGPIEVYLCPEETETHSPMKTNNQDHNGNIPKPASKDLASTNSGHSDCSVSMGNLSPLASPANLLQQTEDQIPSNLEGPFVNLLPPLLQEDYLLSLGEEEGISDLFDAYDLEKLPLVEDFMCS
UniProt Q5JPH6: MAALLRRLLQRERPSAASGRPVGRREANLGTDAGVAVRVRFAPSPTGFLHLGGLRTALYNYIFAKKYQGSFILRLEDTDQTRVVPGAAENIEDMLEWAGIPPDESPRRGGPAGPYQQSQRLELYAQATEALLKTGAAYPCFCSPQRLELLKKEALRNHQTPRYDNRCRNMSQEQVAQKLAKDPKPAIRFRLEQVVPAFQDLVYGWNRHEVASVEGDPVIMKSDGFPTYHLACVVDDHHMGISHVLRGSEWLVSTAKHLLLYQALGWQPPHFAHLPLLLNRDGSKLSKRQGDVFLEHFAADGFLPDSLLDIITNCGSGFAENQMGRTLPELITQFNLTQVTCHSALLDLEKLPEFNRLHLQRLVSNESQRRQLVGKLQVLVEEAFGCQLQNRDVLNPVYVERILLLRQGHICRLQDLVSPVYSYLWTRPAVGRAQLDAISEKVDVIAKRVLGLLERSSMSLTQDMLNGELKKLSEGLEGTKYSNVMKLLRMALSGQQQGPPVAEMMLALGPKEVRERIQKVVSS
UniProt O00559: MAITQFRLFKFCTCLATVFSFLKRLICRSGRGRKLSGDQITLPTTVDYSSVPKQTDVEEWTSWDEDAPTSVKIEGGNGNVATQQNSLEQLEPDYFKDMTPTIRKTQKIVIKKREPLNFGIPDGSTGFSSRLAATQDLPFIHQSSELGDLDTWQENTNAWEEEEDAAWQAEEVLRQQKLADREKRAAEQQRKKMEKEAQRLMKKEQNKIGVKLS
UniProt Q5VTE0, whole entry, looked up: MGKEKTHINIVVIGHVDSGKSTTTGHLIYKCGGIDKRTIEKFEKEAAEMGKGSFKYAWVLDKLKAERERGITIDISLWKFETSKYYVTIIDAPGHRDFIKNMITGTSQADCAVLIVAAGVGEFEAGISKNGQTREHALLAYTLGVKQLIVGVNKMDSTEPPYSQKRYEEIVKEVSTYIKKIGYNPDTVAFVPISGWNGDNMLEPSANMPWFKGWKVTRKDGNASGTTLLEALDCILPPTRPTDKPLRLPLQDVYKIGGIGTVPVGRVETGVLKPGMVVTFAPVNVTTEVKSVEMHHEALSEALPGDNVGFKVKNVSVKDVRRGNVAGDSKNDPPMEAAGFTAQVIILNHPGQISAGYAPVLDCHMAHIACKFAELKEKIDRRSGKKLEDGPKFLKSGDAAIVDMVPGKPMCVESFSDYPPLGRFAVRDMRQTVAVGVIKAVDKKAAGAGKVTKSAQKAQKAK
UniProt Q9H8V3: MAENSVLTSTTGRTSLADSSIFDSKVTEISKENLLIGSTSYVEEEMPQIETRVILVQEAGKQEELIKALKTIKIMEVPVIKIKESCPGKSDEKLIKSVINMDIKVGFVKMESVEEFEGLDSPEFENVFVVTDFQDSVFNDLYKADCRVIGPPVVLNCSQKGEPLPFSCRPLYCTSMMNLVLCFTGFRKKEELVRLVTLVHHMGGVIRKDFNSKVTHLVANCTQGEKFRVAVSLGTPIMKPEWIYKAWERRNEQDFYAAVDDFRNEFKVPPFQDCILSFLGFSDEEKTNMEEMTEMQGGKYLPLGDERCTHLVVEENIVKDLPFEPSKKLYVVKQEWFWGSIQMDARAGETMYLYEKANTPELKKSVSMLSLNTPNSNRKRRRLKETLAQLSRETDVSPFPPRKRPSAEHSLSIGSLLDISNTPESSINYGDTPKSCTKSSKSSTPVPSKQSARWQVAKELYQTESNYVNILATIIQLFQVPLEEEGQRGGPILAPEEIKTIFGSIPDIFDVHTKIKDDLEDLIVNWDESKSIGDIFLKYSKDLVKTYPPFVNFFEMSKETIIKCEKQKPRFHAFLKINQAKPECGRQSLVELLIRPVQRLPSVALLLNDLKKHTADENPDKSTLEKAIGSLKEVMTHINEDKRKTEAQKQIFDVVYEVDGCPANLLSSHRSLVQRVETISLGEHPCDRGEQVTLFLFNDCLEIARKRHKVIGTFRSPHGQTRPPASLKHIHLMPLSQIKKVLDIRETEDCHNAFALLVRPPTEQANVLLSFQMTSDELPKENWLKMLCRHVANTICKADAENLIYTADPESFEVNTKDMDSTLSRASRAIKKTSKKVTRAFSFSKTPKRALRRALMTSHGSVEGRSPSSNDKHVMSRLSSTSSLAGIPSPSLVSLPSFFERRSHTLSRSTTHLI
UniProt Q13409, whole entry, looked up: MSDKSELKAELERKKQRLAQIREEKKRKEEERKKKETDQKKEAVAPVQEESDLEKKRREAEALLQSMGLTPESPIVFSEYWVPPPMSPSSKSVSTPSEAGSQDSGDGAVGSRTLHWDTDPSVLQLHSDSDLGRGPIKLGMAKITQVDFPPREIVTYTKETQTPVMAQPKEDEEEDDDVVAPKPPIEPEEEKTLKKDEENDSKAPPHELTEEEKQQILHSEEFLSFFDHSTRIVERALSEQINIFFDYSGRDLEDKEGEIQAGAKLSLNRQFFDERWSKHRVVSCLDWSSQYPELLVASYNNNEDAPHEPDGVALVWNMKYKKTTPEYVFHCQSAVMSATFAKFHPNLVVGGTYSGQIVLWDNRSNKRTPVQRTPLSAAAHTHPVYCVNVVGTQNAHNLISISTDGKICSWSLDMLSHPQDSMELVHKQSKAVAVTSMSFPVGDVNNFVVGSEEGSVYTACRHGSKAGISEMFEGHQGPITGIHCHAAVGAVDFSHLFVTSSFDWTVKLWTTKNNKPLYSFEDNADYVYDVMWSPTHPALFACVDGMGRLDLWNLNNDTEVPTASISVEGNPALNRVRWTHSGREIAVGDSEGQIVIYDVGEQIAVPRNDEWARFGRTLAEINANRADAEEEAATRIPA
UniProt Q14126: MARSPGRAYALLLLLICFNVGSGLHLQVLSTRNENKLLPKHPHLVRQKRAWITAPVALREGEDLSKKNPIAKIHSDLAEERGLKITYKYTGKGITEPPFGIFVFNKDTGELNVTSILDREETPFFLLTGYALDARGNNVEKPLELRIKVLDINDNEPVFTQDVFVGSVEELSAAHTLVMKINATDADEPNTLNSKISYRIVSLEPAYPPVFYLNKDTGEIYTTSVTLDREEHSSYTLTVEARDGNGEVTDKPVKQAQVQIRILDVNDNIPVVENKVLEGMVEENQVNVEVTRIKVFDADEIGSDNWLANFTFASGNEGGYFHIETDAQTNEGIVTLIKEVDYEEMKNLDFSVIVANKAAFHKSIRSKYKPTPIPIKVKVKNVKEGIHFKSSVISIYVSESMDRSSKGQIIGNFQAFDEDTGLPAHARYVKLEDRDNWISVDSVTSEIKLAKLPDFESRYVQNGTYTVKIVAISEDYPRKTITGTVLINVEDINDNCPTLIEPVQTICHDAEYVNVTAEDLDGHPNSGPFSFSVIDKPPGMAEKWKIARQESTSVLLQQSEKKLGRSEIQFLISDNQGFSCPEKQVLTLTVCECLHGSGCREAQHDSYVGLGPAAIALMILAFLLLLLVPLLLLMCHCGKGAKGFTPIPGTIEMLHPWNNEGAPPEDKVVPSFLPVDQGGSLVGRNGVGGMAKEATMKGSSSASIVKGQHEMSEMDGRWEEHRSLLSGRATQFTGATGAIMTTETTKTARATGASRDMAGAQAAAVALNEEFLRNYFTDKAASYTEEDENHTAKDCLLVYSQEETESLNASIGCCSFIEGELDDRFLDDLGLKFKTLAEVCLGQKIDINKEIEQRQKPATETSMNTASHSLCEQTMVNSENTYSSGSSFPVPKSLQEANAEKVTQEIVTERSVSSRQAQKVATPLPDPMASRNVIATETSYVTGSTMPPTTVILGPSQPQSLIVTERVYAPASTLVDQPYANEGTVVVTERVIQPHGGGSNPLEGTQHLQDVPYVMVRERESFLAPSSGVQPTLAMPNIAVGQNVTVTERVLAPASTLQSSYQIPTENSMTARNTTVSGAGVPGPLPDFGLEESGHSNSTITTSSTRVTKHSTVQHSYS
UniProt Q13011: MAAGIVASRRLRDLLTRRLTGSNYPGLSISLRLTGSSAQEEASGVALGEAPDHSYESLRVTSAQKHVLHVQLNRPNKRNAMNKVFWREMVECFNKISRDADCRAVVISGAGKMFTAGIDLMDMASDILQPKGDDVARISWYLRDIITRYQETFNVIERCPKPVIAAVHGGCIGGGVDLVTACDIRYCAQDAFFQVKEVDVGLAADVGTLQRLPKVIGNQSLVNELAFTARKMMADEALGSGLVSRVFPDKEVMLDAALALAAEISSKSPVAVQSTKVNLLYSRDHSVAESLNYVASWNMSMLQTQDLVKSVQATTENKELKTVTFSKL
UniProt P57772: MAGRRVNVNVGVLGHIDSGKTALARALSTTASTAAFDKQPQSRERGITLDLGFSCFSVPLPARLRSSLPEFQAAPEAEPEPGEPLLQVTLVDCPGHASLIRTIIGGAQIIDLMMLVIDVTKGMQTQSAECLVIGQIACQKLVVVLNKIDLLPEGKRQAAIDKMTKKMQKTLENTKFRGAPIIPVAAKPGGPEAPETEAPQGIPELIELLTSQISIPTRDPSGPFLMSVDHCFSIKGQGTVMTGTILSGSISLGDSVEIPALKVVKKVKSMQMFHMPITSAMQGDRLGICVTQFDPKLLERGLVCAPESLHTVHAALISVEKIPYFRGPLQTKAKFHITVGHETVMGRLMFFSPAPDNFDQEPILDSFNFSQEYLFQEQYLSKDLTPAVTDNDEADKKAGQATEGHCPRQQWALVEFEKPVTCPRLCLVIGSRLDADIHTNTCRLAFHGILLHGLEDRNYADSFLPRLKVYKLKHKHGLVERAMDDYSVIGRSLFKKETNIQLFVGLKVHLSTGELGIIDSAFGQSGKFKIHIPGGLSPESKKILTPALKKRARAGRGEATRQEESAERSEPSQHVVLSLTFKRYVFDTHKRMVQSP
UniProt Q8N5C7: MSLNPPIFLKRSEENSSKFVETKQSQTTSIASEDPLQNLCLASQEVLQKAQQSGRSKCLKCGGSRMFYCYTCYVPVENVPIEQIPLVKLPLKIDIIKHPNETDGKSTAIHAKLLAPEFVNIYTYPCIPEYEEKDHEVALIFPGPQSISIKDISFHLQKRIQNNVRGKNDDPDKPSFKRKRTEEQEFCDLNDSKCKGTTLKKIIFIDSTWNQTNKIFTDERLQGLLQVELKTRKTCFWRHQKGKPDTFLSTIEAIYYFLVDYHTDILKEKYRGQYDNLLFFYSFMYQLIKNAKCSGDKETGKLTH
UniProt Q14919: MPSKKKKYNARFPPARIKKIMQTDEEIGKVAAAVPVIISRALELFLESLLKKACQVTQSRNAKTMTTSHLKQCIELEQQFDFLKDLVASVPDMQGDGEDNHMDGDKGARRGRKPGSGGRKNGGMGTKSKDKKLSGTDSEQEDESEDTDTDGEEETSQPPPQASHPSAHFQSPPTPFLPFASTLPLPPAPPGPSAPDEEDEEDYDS
UniProt O95905: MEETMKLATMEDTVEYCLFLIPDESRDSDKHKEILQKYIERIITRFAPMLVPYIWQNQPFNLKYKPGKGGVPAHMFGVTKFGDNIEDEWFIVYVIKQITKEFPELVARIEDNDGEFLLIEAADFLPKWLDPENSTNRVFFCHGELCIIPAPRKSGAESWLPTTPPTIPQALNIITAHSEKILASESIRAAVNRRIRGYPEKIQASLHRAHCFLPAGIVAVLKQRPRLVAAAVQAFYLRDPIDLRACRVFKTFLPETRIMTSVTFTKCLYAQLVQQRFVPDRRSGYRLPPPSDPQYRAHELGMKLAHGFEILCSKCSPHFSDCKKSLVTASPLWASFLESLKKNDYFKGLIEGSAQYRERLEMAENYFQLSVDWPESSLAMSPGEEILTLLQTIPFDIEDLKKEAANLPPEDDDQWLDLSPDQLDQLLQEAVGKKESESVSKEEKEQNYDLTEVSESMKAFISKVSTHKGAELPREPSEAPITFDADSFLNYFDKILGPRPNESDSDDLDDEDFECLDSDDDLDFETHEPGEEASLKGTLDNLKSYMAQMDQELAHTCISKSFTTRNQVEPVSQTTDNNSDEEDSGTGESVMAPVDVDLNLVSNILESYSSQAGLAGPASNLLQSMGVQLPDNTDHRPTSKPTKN
UniProt Q8N9N8: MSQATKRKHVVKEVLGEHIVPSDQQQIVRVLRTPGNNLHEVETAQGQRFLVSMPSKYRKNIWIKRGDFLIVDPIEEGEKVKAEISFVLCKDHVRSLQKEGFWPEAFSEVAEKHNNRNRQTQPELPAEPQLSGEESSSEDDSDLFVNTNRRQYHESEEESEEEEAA

[2] = compound: CCCS(=O)(=O)Nc1ccc(F)c(C(=O)c2c[nH]c3ncc(Cl)cc23)c1F
Outline: as §1

[3] = compound: CCN(CCCOc1ccc2c(Nc3cc(CC(=O)Nc4cccc(F)c4)[nH]n3)ncnc2c1)CCOP(=O)(O)O [barasertib]
Outline: as §1

[4] = compound: CC[C@@H]1C(=O)N(C)c2cnc(Nc3ccc(C(=O)NC4CCN(C)CC4)cc3OC)nc2N1C1CCCC1
Outline: as §1

[5] = compound: CC[C@@H]1C(=O)N(C)c2cnc(Nc3ccc(C(=O)N[C@H]4CC[C@H](N5CCN(CC6CC6)CC5)CC4)cc3OC)nc2N1C(C)C [volasertib]
Outline: as §1

[6] = compound: CCn1c(C(=O)N(C2CC2)C2CC2)cc2c3c(ncn3C)c(Nc3cc(C)n(C)n3)nc21
Outline: as §1

[7] = compound: CCn1cc(-c2ccnc3[nH]c(-c4cccc(CN(C)C)c4)cc23)c(-c2ccc(NC(=O)N(C)C)cc2)n1
Outline: as §1

[8] = compound: CN1CCC(CNc2ccc3ncc(-c4cccc(OC(F)(F)F)c4)n3n2)CC1
Outline: as §1

[9] = compound: CN1CCN(CCOc2cc(OC3CCOCC3)c3c(Nc4c(Cl)ccc5c4OCO5)ncnc3c2)CC1 [saracatinib]
Outline: as §1

[10] = compound: CN1CCN(c2nc(C3=C(c4c[nH]c5ccccc45)C(=O)NC3=O)c3ccccc3n2)CC1 [sotrastaurin]
Outline: as §1

[11] = compound: CN1CC[C@H](c2c(O)cc(O)c3c(=O)cc(-c4ccccc4Cl)oc23)[C@H](O)C1 [alvocidib]
Outline: as §1

[12] = compound: CN1CCc2c(c3ccccc3n2Cc2ccc(C(=O)NO)cc2)C1 [Tubastatin A]
Outline: as §1

[13] = compound: CNC(=O)C1=CC=CC=C1NC2=NC(=NC=C2Cl)NC3=C(C=C(C=C3)N4CCOCC4)OC
Outline: as §1

[14] = compound: CNC(=O)c1ccc(Nc2ncc(C(F)(F)F)c(NCc3nccnc3N(C)S(C)(=O)=O)n2)cc1 [defactinib]
Outline: as §1

[15] = compound: CNc1nc(-c2ccc3c(N)n[nH]c3c2)cc(N2C[C@@H](C(=O)NC3CCCCC3)CC[C@H]2C)n1
Outline: as §1

[16] = compound: COC(=O)N[C@@H](C)CNc1nccc(-c2cn(C(C)C)nc2-c2cc(Cl)cc(NS(C)(=O)=O)c2F)n1 [encorafenib]
Outline: as §1

[17] = compound: COC(=O)[C@H](CCSC)NC(=O)C1=C(C=C(C=C1)NC[C@H](CS)N)C2=CC=CC=C2
Outline: as §1

[18] = compound: COc1cc(Nc2ncc3c(n2)-c2ccc(Cl)cc2C(c2c(F)cccc2OC)=NC3)ccc1C(=O)O [alisertib]
Outline: as §1

[19] = compound: COc1cc2nc(-c3cc(F)ccc3O)nc(N[C@@H]3CNC[C@H]3C(C)(C)O)c2cc1OC
Outline: as §1

[20] = compound: COc1cc2ncnc(Nc3ccc(F)c(Cl)c3)c2cc1OCCCN1CCOCC1 [gefitinib]
Outline: as §1

Target | log2 fold change [1] | log2 fold change [2] | log2 fold change [3] | log2 fold change [4] | log2 fold change [5] | log2 fold change [6] | log2 fold change [7] | log2 fold change [8] | log2 fold change [9] | log2 fold change [10] | log2 fold change [11] | log2 fold change [12] | log2 fold change [13] | log2 fold change [14] | log2 fold change [15] | log2 fold change [16] | log2 fold change [17] | log2 fold change [18] | log2 fold change [19] | log2 fold change [20]
E2F3 (UniProt O00716) | inactive: 0.077 | inactive: -0.043 | inactive: 0.033 | inactive: 0.15 | inactive: 0.082 | inactive: 0.015 | inactive: -0.037 | inactive: -0.091 | inactive: 0.032 | inactive: -0.016 | inactive: -0.049 | inactive: -0.068 | inactive: 0.038 | inactive: 0.053 | inactive: -0.042 | inactive: -0.034 | inactive: -0.119 | inactive: 0.012 | inactive: 0 | inactive: 0.011
EARS2 (UniProt Q5JPH6) | inactive: 0.042 | inactive: 0.051 | inactive: 0.056 | inactive: 0.041 | inactive: -0.054 | inactive: -0.018 | inactive: -0.046 | inactive: 0.053 | inactive: -0.03 | inactive: 0.007 | inactive: -0.08 | inactive: -0.051 | inactive: 0.043 | inactive: 0.037 | inactive: 0.009 | inactive: 0.026 | inactive: -0.086 | inactive: 0.017 | inactive: 0.016 | inactive: 0.052
EHD1 (UniProt Q9H4M9) | inactive: 0.032 | inactive: 0.006 | inactive: -0.021 | inactive: -0.009 | inactive: -0.037 | inactive: 0.012 | inactive: 0.035 | inactive: -0.079 | inactive: -0.012 | inactive: 0.002 | inactive: 0.058 | inactive: -0.007 | inactive: 0 | inactive: -0.021 | inactive: 0.012 | inactive: -0.022 | inactive: 0.068 | inactive: -0.013 | inactive: 0.004 | inactive: -0.015
EBAG9 isoform 2 (UniProt O00559) | inactive: -0.031 | inactive: 0.04 | inactive: 0.018 | inactive: 0.09 | inactive: 0.043 | inactive: -0.065 | inactive: -0.098 | inactive: 0.181 | inactive: 0.12 | inactive: -0.026 | inactive: 0.032 | inactive: 0.022 | inactive: 0.047 | inactive: 0.001 | inactive: -0.032 | inactive: -0.006 | inactive: -0.02 | inactive: -0.053 | inactive: 0.02 | inactive: -0.033
EEF1A1P5 (UniProt Q5VTE0) | inactive: 0.022 | inactive: 0.002 | inactive: -0.017 | inactive: 0.004 | inactive: -0.022 | inactive: -0.031 | inactive: -0.105 | inactive: 0.073 | inactive: -0.021 | inactive: 0.025 | inactive: -0.022 | inactive: -0.065 | inactive: -0.021 | inactive: -0.015 | inactive: -0.218 | inactive: -0.027 | inactive: 0.127 | inactive: 0.023 | inactive: 0.009 | inactive: 0
ECT2 (UniProt Q9H8V3) | inactive: -0.003 | inactive: 0.03 | inactive: -0.01 | inactive: 0.068 | inactive: -0.192 | inactive: 0.07 | inactive: -0.088 | inactive: 0.167 | inactive: 0.018 | inactive: -0.06 | inactive: 0.016 | inactive: 0.028 | inactive: 0.081 | inactive: -0.073 | inactive: 0.149 | inactive: 0.074 | inactive: 0.032 | inactive: 0.013 | inactive: -0.05 | inactive: 0.018
DYNC1I2 isoform 5 (UniProt Q13409) | inactive: -0.015 | inactive: 0.013 | inactive: -0.03 | inactive: -0.012 | inactive: -0.013 | inactive: -0.016 | inactive: -0.017 | inactive: 0.017 | inactive: 0.003 | inactive: -0.034 | inactive: 0.002 | inactive: 0.007 | inactive: -0.021 | inactive: -0.011 | inactive: 0.012 | inactive: -0.007 | inactive: -0.012 | inactive: -0.011 | inactive: 0.004 | inactive: 0.006
DSG2 (UniProt Q14126) | inactive: 0.024 | inactive: 0.007 | inactive: -0.033 | inactive: 0.02 | inactive: -0.073 | inactive: 0.091 | inactive: 0.01 | inactive: 0 | inactive: 0.001 | inactive: -0.037 | inactive: -0.023 | inactive: -0.004 | inactive: 0.018 | inactive: 0.048 | inactive: -0.039 | inactive: -0.011 | inactive: -0.003 | inactive: -0.001 | inactive: 0 | inactive: 0.027
ECH1 (UniProt Q13011) | inactive: -0.003 | inactive: -0.025 | inactive: -0.008 | inactive: -0.019 | inactive: 0.041 | inactive: -0.007 | inactive: -0.07 | active: 0.348 | inactive: -0.047 | active: 0.608 | inactive: 0.017 | active: 0.309 | inactive: -0.028 | inactive: 0.004 | inactive: -0.004 | inactive: -0.033 | inactive: -0.024 | inactive: -0.01 | inactive: 0.047 | inactive: -0.001
EEFSEC (UniProt P57772) | inactive: 0.031 | inactive: 0.024 | inactive: 0.031 | inactive: -0.067 | inactive: -0.035 | inactive: -0.012 | inactive: -0.073 | inactive: 0.009 | inactive: -0.015 | inactive: -0.016 | inactive: -0.008 | inactive: -0.157 | inactive: 0.019 | inactive: 0.036 | inactive: -0.017 | inactive: 0.018 | inactive: 0.098 | inactive: 0.019 | inactive: 0 | inactive: -0.012
DTWD1 (UniProt Q8N5C7) | inactive: 0.028 | inactive: 0.018 | inactive: -0.005 | inactive: 0.024 | inactive: -0.036 | inactive: 0.016 | inactive: -0.026 | inactive: -0.032 | inactive: -0.033 | inactive: 0.019 | inactive: 0.041 | inactive: -0.028 | inactive: 0.011 | inactive: -0.032 | inactive: 0.01 | inactive: -0.044 | inactive: -0.046 | inactive: 0 | inactive: 0.005 | inactive: -0.006
DXO (UniProt O77932) | inactive: -0.064 | inactive: 0.028 | inactive: -0.005 | inactive: -0.001 | inactive: -0.049 | inactive: 0.089 | inactive: 0.01 | inactive: 0.015 | inactive: -0.006 | inactive: -0.064 | inactive: 0 | inactive: 0.012 | inactive: 0.008 | inactive: -0.022 | inactive: -0.072 | inactive: 0.068 | inactive: -0.059 | inactive: -0.023 | inactive: 0.007 | inactive: -0.024
DRAP1 isoform 2 (UniProt Q14919) | inactive: 0.008 | inactive: 0.013 | inactive: -0.037 | inactive: 0.071 | inactive: 0.029 | inactive: -0.027 | inactive: 0.026 | inactive: -0.021 | inactive: -0.032 | inactive: -0.018 | inactive: 0.008 | inactive: -0.009 | inactive: 0.086 | inactive: 0.028 | inactive: 0 | inactive: 0.032 | inactive: -0.027 | inactive: -0.003 | inactive: -0.004 | inactive: 0.02
DPH2 (UniProt Q9BQC3) | inactive: -0.008 | inactive: 0.019 | inactive: -0.01 | inactive: 0.012 | inactive: 0 | inactive: 0.013 | inactive: 0.018 | inactive: 0.018 | inactive: -0.01 | inactive: -0.017 | inactive: -0.028 | inactive: 0.042 | inactive: -0.039 | inactive: 0.02 | inactive: 0.031 | inactive: -0.044 | inactive: 0.044 | inactive: -0.01 | inactive: 0.011 | inactive: -0.051
ECD isoform 3 (UniProt O95905) | inactive: 0.02 | inactive: 0.015 | inactive: 0.011 | inactive: -0.062 | inactive: -0.001 | inactive: -0.012 | inactive: -0.005 | inactive: -0.146 | inactive: 0.029 | inactive: 0.027 | inactive: 0.013 | inactive: -0.001 | inactive: 0.033 | inactive: 0.024 | inactive: -0.104 | inactive: 0.059 | inactive: 0 | inactive: -0.013 | inactive: 0.03 | inactive: -0.018
EIF1AD (UniProt Q8N9N8) | inactive: -0.047 | inactive: 0.002 | inactive: -0.052 | inactive: -0.08 | inactive: 0.02 | inactive: 0.006 | inactive: -0.021 | inactive: 0.019 | inactive: -0.011 | inactive: -0.009 | inactive: 0.009 | inactive: 0.034 | inactive: 0.011 | inactive: -0.021 | inactive: 0.034 | inactive: 0.01 | inactive: -0.036 | inactive: 0.04 | inactive: -0.003 | inactive: 0.046

Some of the entries so far, as tab-separated lines.
Target	log2 fold change [1]	log2 fold change [2]	log2 fold change [3]	log2 fold change [4]	log2 fold change [5]	log2 fold change [6]	log2 fold change [7]	log2 fold change [8]	log2 fold change [9]	log2 fold change [10]	log2 fold change [11]	log2 fold change [12]	log2 fold change [13]	log2 fold change [14]	log2 fold change [15]	log2 fold change [16]	log2 fold change [17]	log2 fold change [18]	log2 fold change [19]	log2 fold change [20]
EBAG9 isoform 2 (UniProt O00559)	inactive: -0.031	inactive: 0.04	inactive: 0.018	inactive: 0.09	inactive: 0.043	inactive: -0.065	inactive: -0.098	inactive: 0.181	inactive: 0.12	inactive: -0.026	inactive: 0.032	inactive: 0.022	inactive: 0.047	inactive: 0.001	inactive: -0.032	inactive: -0.006	inactive: -0.02	inactive: -0.053	inactive: 0.02	inactive: -0.033
EEFSEC (UniProt P57772)	inactive: 0.031	inactive: 0.024	inactive: 0.031	inactive: -0.067	inactive: -0.035	inactive: -0.012	inactive: -0.073	inactive: 0.009	inactive: -0.015	inactive: -0.016	inactive: -0.008	inactive: -0.157	inactive: 0.019	inactive: 0.036	inactive: -0.017	inactive: 0.018	inactive: 0.098	inactive: 0.019	inactive: 0	inactive: -0.012
DTWD1 (UniProt Q8N5C7)	inactive: 0.028	inactive: 0.018	inactive: -0.005	inactive: 0.024	inactive: -0.036	inactive: 0.016	inactive: -0.026	inactive: -0.032	inactive: -0.033	inactive: 0.019	inactive: 0.041	inactive: -0.028	inactive: 0.011	inactive: -0.032	inactive: 0.01	inactive: -0.044	inactive: -0.046	inactive: 0	inactive: 0.005	inactive: -0.006
DXO (UniProt O77932)	inactive: -0.064	inactive: 0.028	inactive: -0.005	inactive: -0.001	inactive: -0.049	inactive: 0.089	inactive: 0.01	inactive: 0.015	inactive: -0.006	inactive: -0.064	inactive: 0	inactive: 0.012	inactive: 0.008	inactive: -0.022	inactive: -0.072	inactive: 0.068	inactive: -0.059	inactive: -0.023	inactive: 0.007	inactive: -0.024

Reference: the supplement of paper PMC10849652
